The list does not hold the whole screen: it is rich in T/C values a quarter to a half above the control, in often repeated tests (any T/C) and in doses without a T/C. Other doses and runs of a compound stand elsewhere. T/C: endpoint of the treated group in % of that of the vehicle group. Schedules are NCI's codes, taken here to give the interval after Q, in days (D) or hours (H), and the number of doses after X. Some doses have a count of surviving animals in place of a T/C: the source files T/C as zero there, which appears to mark a toxic dose or a test without result, not a measured value. Counts of survivors are from the toxicity check (mostly the fifth day) where no day follows; animals may have died later.
Test system: MX-1 breast xenograft, intrarenal, nude mice, tumor weight
Test: NCI In Vivo Anticancer Drug Screen. Data for tumor model Human Mammary Carcinoma MX-1 Xenograft (intrarenal inoculation) in NU/NU BALB/C (nude) mice
Settings: T/C endpoint: mean tumor weight change, higher T/C = larger tumour; for T/C: evaluated on day 11
How it was run: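 Efficacy in vivo: tumor measurement or survival of treated animals divided by that of vehicle-dosed controls.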

[1] = dose: 200.0 mg/kg/injection, schedule: Q04DX003 (sc), vehicle: saline
[2] = dose: 600.0 mg/kg/injection, schedule: Q04DX003 (sc), vehicle: saline
[3] = dose: 600.0 mg/kg/injection, schedule: Q04DX003 (ip), vehicle: Klucel (hydroxypropylcellulose) (HPC)

CC1Oc2cc3c(-c4c(O)cc(O)c5c(O)c6c(cc45)OC(C)C(C)C6=O)c(O)cc(O)c3c(O)c2C(=O)C1C (centres undefined)
T/C (dose: 3.0 mg/kg/injection, schedule: Q04DX003 (ip), vehicle: suspension in saline): 142 % of control
T/C (dose: 6.0 mg/kg/injection, schedule: Q04DX003 (ip), vehicle: suspension in saline): 142 % of control

COc1cc(Cc2nccc3cc(OC)c(OC)cc23)c(C(C)=O)cc1OC
survivor count (dose: 2400.0 mg/kg/injection, schedule: Q04DX003 (sc), vehicle: saline): 3 of 6 on day 11

CN(N=O)C(N)=O
T/C (dose: 25.0 mg/kg/injection, schedule: Q04DX003 (sc), vehicle: saline): 144 % of control
T/C (dose: 50.0 mg/kg/injection, schedule: Q04DX003 (sc), vehicle: saline): 142 % of control
survivor count (dose: 100.0 mg/kg/injection, schedule: Q04DX003 (sc), vehicle: saline with Tween-80): 2 of 6 on day 11
survivor count (dose: 200.0 mg/kg/injection, schedule: Q04DX003 (sc), vehicle: saline with Tween-80): 0 of 6 on day 11
T/C [1]: 136 % of control
survivor count [1]: 0 of 6 on day 11
survivor count (dose: 400.0 mg/kg/injection, schedule: Q04DX003 (sc), vehicle: saline with Tween-80): 0 of 6 on day 11

CCn1cnc2c(=S)nc[nH]c21
survivor count [2]: 1 of 6 on day 11
survivor count (dose: 1200.0 mg/kg/injection, schedule: Q04DX003 (sc), vehicle: saline): 0 of 6 on day 11

N[C@@H](Cc1ccc(N(CCCl)CCCl)cc1)C(=O)O
survivor count (dose: 8.0 mg/kg/injection, schedule: Q01DX010 (sc), vehicle: saline): 1 of 3 on day 11

O=c1[nH]cnc2c1cnn2CN1CCOCC1
T/C (dose: 75.0 mg/kg/injection, schedule: Q04DX003 (ip), vehicle: Klucel (hydroxypropylcellulose) (HPC)): 125 % of control
survivor count [3]: 1 of 6 on day 11

C=C1C(O)C2OC3(CCC(/C=C/C(C)C4CC5(C)SC5C5(OC(CC(C)(O)C(=O)O)CCC5O)O4)O3)CCC2OC1C(O)CC(C)C1OC2(CCCCO2)CCC1C (centres undefined)
T/C (dose: 20.0 micrograms/kg/injection, schedule: Q04DX003 (ip), vehicle: saline + alcohol): 135 % of control
survivor count (dose: 80.0 micrograms/kg/injection, schedule: Q04DX003 (ip), vehicle: saline + alcohol): 0 of 6 on day 11
survivor count (dose: 160.0 micrograms/kg/injection, schedule: Q04DX003 (ip), vehicle: saline + alcohol): 0 of 6 on day 11
survivor count (dose: 320.0 micrograms/kg/injection, schedule: Q04DX003 (ip), vehicle: saline + alcohol): 0 of 6 on day 11

C=CC(=O)N1CN(C(=O)C=C)CN(C(=O)C=C)C1
survivor count (dose: 25.0 mg/kg/injection, schedule: Q01DX010 (sc), vehicle: saline with Tween-80): 0 of 3 on day 11
survivor count (dose: 50.0 mg/kg/injection, schedule: Q01DX010 (sc), vehicle: saline with Tween-80): 0 of 3 on day 11

CS(=O)(=O)CS(=O)(=O)OCCF
survivor count (dose: 50.0 mg/kg/injection, schedule: Q04DX003 (ip), vehicle: saline): 3 of 6 on day 11
survivor count (dose: 100.0 mg/kg/injection, schedule: Q04DX003 (ip), vehicle: saline): 2 of 5 on day 11

C[C@]12CC[C@H]3[C@@H](CCC4=C[C@@H](OC5OCC(OC6OC(CO)C(O)C(O)C6O)C(O)C5O)CC[C@@]43C=O)[C@@]1(O)CCC2C1=CC(=O)OC1 (some centres undefined)
T/C (dose: 30.0 mg/kg/injection, schedule: Q04DX003 (sc), vehicle: Klucel (hydroxypropylcellulose) (HPC)): 136 % of control
survivor count (dose: 60.0 mg/kg/injection, schedule: Q04DX003 (sc), vehicle: Klucel (hydroxypropylcellulose) (HPC)): 2 of 6 on day 11
survivor count (dose: 120.0 mg/kg/injection, schedule: Q04DX003 (sc), vehicle: Klucel (hydroxypropylcellulose) (HPC)): 1 of 6 on day 11

S=C1CCCCN1
survivor count (dose: 600.0 mg/kg/injection, schedule: Q04DX003 (ip), vehicle: distilled water + Tween-80 + alcohol): 0 of 6 on day 11
survivor count (dose: 1200.0 mg/kg/injection, schedule: Q04DX003 (ip), vehicle: distilled water + Tween-80 + alcohol): 0 of 6 on day 11

Cc1cnc(/C=N\NC(N)=S)c2cccc(N)c12
survivor count (dose: 250.0 mg/kg/injection, schedule: Q04DX003 (ip), vehicle: saline with Tween-80): 2 of 6 on day 11
survivor count (dose: 500.0 mg/kg/injection, schedule: Q04DX003 (ip), vehicle: saline with Tween-80): 0 of 6 on day 11
survivor count (dose: 1000.0 mg/kg/injection, schedule: Q04DX003 (ip), vehicle: saline with Tween-80): 0 of 6 on day 11

Cc1nc2c(N)cc(Cl)cc2[nH]1
survivor count (dose: 400.0 mg/kg/injection, schedule: Q04DX003 (ip), vehicle: saline with Tween-80): 0 of 6 on day 11
survivor count (dose: 800.0 mg/kg/injection, schedule: Q04DX003 (ip), vehicle: saline with Tween-80): 0 of 6 on day 11

O=C(CCCN1CCC(C(O)c2ccc(F)cc2)CC1)c1ccc(F)cc1 (centres undefined)
survivor count (dose: 100.0 mg/kg/injection, schedule: Q04DX003 (ip), vehicle: saline with Tween-80): 3 of 6 on day 11
survivor count (dose: 200.0 mg/kg/injection, schedule: Q04DX003 (ip), vehicle: saline with Tween-80): 0 of 6 on day 11

CCCCN1C(=O)N(c2ccc(OCC)cc2)C2N(CCCC)C1C(C)(C)C2(C)C (centres undefined)
survivor count (dose: 240.0 mg/kg/injection, schedule: Q04DX003 (ip), vehicle: saline with Tween-80): 0 of 6 on day 11
survivor count (dose: 480.0 mg/kg/injection, schedule: Q04DX003 (ip), vehicle: saline with Tween-80): 0 of 6 on day 11
survivor count (dose: 960.0 mg/kg/injection, schedule: Q04DX003 (ip), vehicle: saline with Tween-80): 0 of 6 on day 11

CC(C)CC(=O)NC(C(=O)NC(C(=O)NC(CC(C)C)C(O)CC(=O)NC(C)C(=O)NC(CC(C)C)C(O)CC(=O)O)C(C)C)C(C)C (centres undefined)
survivor count (dose: 300.0 mg/kg/injection, schedule: Q04DX003 (ip), vehicle: Klucel (hydroxypropylcellulose) (HPC)): 3 of 6 on day 11
survivor count [3]: 0 of 6 on day 11
survivor count (dose: 1200.0 mg/kg/injection, schedule: Q04DX002 (ip), vehicle: Klucel (hydroxypropylcellulose) (HPC)): 0 of 6 on day 11
survivor count (dose: 1200.0 mg/kg/injection, schedule: Q04DX003 (ip), vehicle: Klucel (hydroxypropylcellulose) (HPC)): 0 of 6 on day 11

CN(CN1C(=O)CCC1=O)CN1C(=O)CCC1=O
survivor count (dose: 600.0 mg/kg/injection, schedule: Q04DX003 (ip), vehicle: saline): 0 of 6 on day 11
survivor count (dose: 1200.0 mg/kg/injection, schedule: Q04DX003 (ip), vehicle: saline): 0 of 6 on day 11

O=C(O)CCCc1ccc(N(CCCl)CCCl)cc1
survivor count (dose: 27.0 mg/kg/injection, schedule: Q04DX003 (ip), vehicle: Klucel (hydroxypropylcellulose) (HPC)): 1 of 5 on day 11

COc1ccc2[nH]c3ccc4cc[n+](CCN5CCC(C6CCN(CC[n+]7ccc8ccc9[nH]c%10ccc(OC)cc%10c9c8c7)CC6)CC5)cc4c3c2c1
survivor count (dose: 106.67 mg/kg/injection, schedule: Q04DX003 (ip), vehicle: other): 1 of 6 on day 11

COc1cccc2c1C(=O)c1c(O)c3c(c(O)c1C2=O)C[C@@](O)(/C(C)=N\O)C[C@@H]3OC1CC(N)C(O)C(C)O1 (some centres undefined)
survivor count (dose: 100.0 mg/kg/injection, schedule: Q04DX003 (sc), vehicle: saline): 0 of 6 on day 11

Cc1cc(=NO)cc(C)n1O
T/C (dose: 600.0 mg/kg/injection, schedule: Q04DX003 (sc), vehicle: distilled water + alcohol): 127 % of control

C1CC[N-]CC1.C1CC[N-]CC1.C1CC[N-]CC1.[Cl][Rh]([Cl])[Cl]
survivor count [2]: 0 of 5 on day 11

— PubChem BioAssay AID298 (DTP/NCI, 2004)
